“Also recorded” adds a separate entry of the source. At least one peptide structure holds a part that was inferred or is arguable (an end, a ring closure or a residue). Where a SMILES comes first, the peptide text is derived from it.
Experiments:
[1] = tested on: bloodstream form T. b. brucei (wild type 427); experiment: Trypanosome lysis assay with Hpr-SP; type: cell-based, Trypanosoma brucei brucei
Description: Trypanosome lysis assays. Trypanosomes were cultured in the appropriate media and incubated at a cell density of 3×10^6 cells/ml with the addition of peptide from a 10 mg/ml stock in DMSO, or control reagents for 2 hours (h) at 37° C. Lysis of bloodstream form trypanosomes was evaluated by phase-contrast microscopy. Procyclic form trypanosomes were stained with 0.1% trypan blue. Trypan blue staining was also used for some bloodstream form assays to eliminate any possible discrepancy between the procyclic and bloodstream form assays.

[2] = tested on: procyclic form T. b. brucei; experiment: Trypanosome lysis assay, procyclic form; type: cell-based, Trypanosoma brucei brucei; settings: 80 μM Hpr-SP
[3] = tested on: bloodstream form T. b. brucei cell membrane; experiment: Anisotropy assay with TMA-DPH, Example 1; type: cell-based, Trypanosoma brucei brucei; settings: lytic concentrations of Hpr-SP, 25° C.
[4] = tested on: T. b. gambiense type 1 (Eliane strain); experiment: Trypanosome killing assay, Example 2; type: cell-based, Trypanosoma brucei gambiense; settings: two hours at 37° C.
LNCaP cells = experiment: Flow cytometry peptide binding; type: cell-based, human; settings: Texas-red labeled SHP-1
[5] = tested on: T. b. rhodesiense KETR12482; experiment: Trypanosome killing assay, Example 2; type: cell-based, Trypanosoma brucei rhodesiense; settings: two hours at 37° C.
[6] = tested on: Metacyclic T. b. brucei TREU 667; experiment: Trypanosome killing assay, Example 4; type: cell-based, Trypanosoma brucei brucei; settings: 2 hours, 37° C.
[7] = tested on: Bloodstream form T. b. brucei Lister 427; experiment: Trypanosome killing assay, Example 2; type: cell-based, Trypanosoma brucei brucei
Description: Trypanosome killing assays. Bloodstream form T. b. brucei Lister 427 (MiTat 1.2), T. b. gambiense type 1 (Eliane strain) and T. b. rhodesiense KETR12482 were used in these studies. Trypanosome killing assays were performed as described previously (Hajduk et al., 1989, J Biol Chem; 264(9):5210-5217; Shiflett et al., 2005, J Biol Chem; 280(38):32578-32585; and Widener et al., 2007, PLoS Pathog; 3(9):1250-1261). Cultured trypanosomes (except for T. b. gambiense which were incubated at 1×10^6 cells/ml) were incubated in HMI-9 media (BSF) or SM media (PCF) at a density of 1×10^7 cells/ml containing either 10% heat inactivated fetal bovine serum or bovine serum albumin and peptide or control reagents for two hours at 37° C. Killing of BSF trypanosomes was evaluated by phase-contrast microscopy. Procyclic form trypanosomes were stained with 0.1% trypan blue. Trypan blue staining was also used for some BSF assays to eliminate any possible discrepancy between the PCF and BSF assays. Trypan blue was added at the endpoint of each assay to avoid any toxic effects.

BSF T. brucei = experiment: DIC video microscopy of trypanosome motility, Example 2; type: cell-based, Trypanosoma brucei
[8] = tested on: bloodstream form T. vivax; experiment: Trypanosome killing assay, Example 4; type: cell-based, Trypanosoma vivax; settings: 2 hours, 37° C.
[9] = tested on: procyclic form (PCF) T. b. brucei; experiment: Trypanosome killing assay, Example 2; type: cell-based, Trypanosoma brucei brucei; settings: two hours at 37° C.
[10] = tested on: plasma membrane of live BSF T. b. brucei; experiment: Anisotropy assays with DPH and TMA-DPH, Example 4; type: cell-based, Trypanosoma brucei brucei; settings: 37° C.
Description: Anisotropy Assays. The plasma membrane rigidity of live T. b. brucei was determined by measuring the fluorescence depolarization of diphenyl-1,3,5-hexatriene p-toluenesulfonate (DPH) or 1-(4-trimethylammoniumphenyl)-6-diphenyl-1,3,5-hexatriene p-toluenesulfonate (TMA-DPH; Invitrogen T204). Cells were washed 3 times with and resuspended in PBS at a density of 3×10^6 cells/ml. The anisotropic probes were added to a final concentration of […] and allowed to intercalate into the cell membrane for one hour in the dark. Anisotropic values were acquired via the software function of a PerkinElmer Life Sciences LS55 spectrofluorometer. Samples were excited at 358 nm, and emission was read at 430 nm, both with 10-nm slit widths. Temperature was maintained at 37° C. by means of the PerkinElmer LS55 Biokinetics accessory. Data were corrected for light scattering with an unlabeled sample of cells, and anisotropy was calculated according to the equation r=(IVV−GIVH)/(IVV+2GIVH), where r is the anisotropy value, IVV is the emission intensity acquired with the excitation- and emission-polarizing filters set vertically, G is the instrument correction factor, and IVH is the emission intensity acquired with the excitation-polarizing filter set vertically and the emission-polarizing filter set horizontally. All assays were conducted at 37° C. […]

[11] = tested on: BSF T. brucei cell membranes; experiment: Anisotropy assay with TMA-DPH, Example 2; type: cell-based, Trypanosoma brucei brucei; settings: ~25° C.
HEK cells = experiment: Flow cytometry peptide binding; type: cell-based, human; settings: Texas-red labeled SHP-1
[12] = tested on: PCF T. brucei cell membranes; experiment: Anisotropy assay with TMA-DPH, Example 2; type: cell-based, Trypanosoma brucei brucei; settings: ~25° C.
[13] = tested on: bloodstream form T. congolense; experiment: Trypanosome killing assay, Example 4; type: cell-based, Trypanosoma congolense; settings: 2 hours, 37° C.

Structure (SMILES): CC[C@H](C)[C@H](NC(=O)[C@@H](NC(=O)[C@H](C)NC(=O)CNC(=O)[C@H](CC(C)C)NC(=O)[C@H](CC(=O)O)NC(=O)[C@H](CO)NC(=O)[C@@H](N)CCSC)C(C)C)C(=O)N[C@@H](CO)C(=O)N[C@@H](CC(C)C)C(=O)N[C@@H](CC(C)C)C(=O)N[C@@H](CC(C)C)C(=O)N[C@@H](Cc1c[nH]c2ccccc12)C(=O)NCC(=O)N[C@@H](CCCNC(=N)N)C(=O)N[C@@H](CCC(N)=O)C(=O)N[C@@H](CC(C)C)C(=O)N[C@@H](Cc1ccccc1)C(=O)N[C@@H](C)C(=O)O [Hpr-SP, MSDLGAVISLLLWGRQLFA] (H-MSDLGAVISLLLWGRQLFA-OH; N-terminus and C-terminus assumed)
- trypanolysis at temperature that halts endocytosis ([1]; 3° C.): Robust trypanolysis was observed, equivalent to activity observed at 37 °C
- killing (trypanolysis) of bloodstream form trypanosomes ([1]; 8-80 μM peptide, 2 h, 37° C.): efficiently killed cells in a dose dependent fashion; also recorded: highly toxic to trypanosomes, at low μM concentrations
- inhibition of Hpr-SP killing by pH neutralizing agents ([1]; in the presence of 10 mM NH4Cl or 50 μM chloroquine): No inhibitory effect
- trypanolytic activity against procyclic trypanosomes [2]: > 20%
- cell membrane rigidity (TMA-DPH anisotropy) [3]: induced a rigidity increase

Structure (SMILES): CC[C@H](C)[C@H](NC(=O)[C@@H](NC(=O)[C@H](C)NC(=O)CNC(=O)[C@H](CC(C)C)NC(=O)[C@H](CC(=O)O)NC(=O)[C@@H](N)CO)C(C)C)C(=O)N[C@@H](CO)C(=O)N[C@@H](CC(C)C)C(=O)N[C@@H](CC(C)C)C(=O)N[C@@H](CC(C)C)C(=O)N[C@@H](Cc1c[nH]c2ccccc12)C(=O)NCC(=O)N[C@@H](CCCNC(=N)N)C(=O)N[C@@H](CCC(N)=O)C(=O)N[C@@H](CC(C)C)C(=O)N[C@@H](Cc1ccccc1)C(=O)N[C@@H](C)C(=O)O [SHP-1, SDLGAVISLLLWGRQLFA] (H-SDLGAVISLLLWGRQLFA-OH; N-terminus and C-terminus assumed)
- killing of T. b. gambiense [4]: sensitive to killing
- binding to LNCaP cells (LNCaP cells): not bound
- killing of T. b. rhodesiense [5]: sensitive to killing
- killing of metacyclic stage cells [6]: no killing activity
- state of cells treated with lower concentrations ([7]; 4 μM SHP-1): motionless and unable to exclude trypan blue
- trypanocidal activity at temperature that halts endocytosis ([7]; 3° C.): Robust trypanocidal activity
- killing of BSF T. b. brucei ([7]; two hours at 37° C.): killed cells in a dose dependent fashion
- time to slowing down and dying (BSF T. brucei; 80 μM SHP-1): ≤ 10 min
- cells displaying constricted motility (BSF T. brucei; 8 M SHP-1, 20 minutes): approximately 50%
- cells remaining hyperactivated in their motion (BSF T. brucei; 8 M SHP-1, 20 minutes): approximately 50%
- killing of bloodstream form T. vivax [8]: susceptible to killing by SHP-1 at concentrations similar to BSF T. brucei
- killing of PCF T. b. brucei [9]: No killing of PCF cells was observed
- rigidity of the interfacial region of the plasma membrane (TMA-DPH) [10]: increased the rigidity of the interfacial region of the plasma membrane
- rigidity of BSF cell membranes (TMA-DPH anisotropy) [11]: increases the rigidity of BSF cell membranes
- binding to HEK cells (HEK cells): not bound
- anisotropy of PCF trypanosomes (TMA-DPH) [12]: unchanged
- killing of bloodstream form T. congolense [13]: susceptible to killing by SHP-1 at concentrations similar to BSF T. brucei
